Publication PMC12804605
Results are given in words; binding and its absence hold for the method and conditions named. Binding seen in cells or lysates may run through a third protein. These calls come from enrichment with a bait or labelling near it, and not all partners need be listed.

B1: DLAT, endogenous in NIH/3T3 cells (enzyme, UniProt Q8BMF4 86-642)
chain: SLPPHQKVPLPSLSPTMQAGTIARWEKKEGEKISEGDLIAEVETDKATVGFESLEECYMAKILVPEGTRDVPVGSIICITVEKPQDIEAFKNYTLDLAAAAAPQAAPAAAPAPAAAPAAPSASAPGSSYPTHMQIVLPALSPTMTMGTVQRWEKKVGEKLSEGDLLAEIETDKATIGFEVQEEGYLAKILVPEGTRDVPLGAPLCIIVEKQEDIAAFADYRPTEVTSLKPQAAPPAPPPVAAVPPTPQPVAPTPSAAPAGPKGRVFVSPLAKKLAAEKGIDLTQVKGTGPEGRIIKKDIDSFVPSKAAPAAAAAMAPPGPRVAPAPAGVFTDIPISNIRRVIAQRLMQSKQTIPHYYLSVDVNMGEVLLVRKELNKMLEGKGKISVNDFIIKASALACLKVPEANSSWMDTVIRQNHVVDVSVAVSTPAGLITPIVFNAHIKGLETIASDVVSLASKAREGKLQPHEFQGGTFTISNLGMFGIKNFSAIINPPQACILAIGASEDKLIPADNEKGFDVASVMSVTLSCDHRVVDGAVGAQWLAEFKKYLEKPITMLL
B2: ACAT1, endogenous in NIH/3T3 cells (enzyme, UniProt Q8QZT1 31-424)
chain: ASKPTLNEVVIVSAIRTPIGSFLGSLASQPATKLGTAAIQGAIEKAGIPKEEVKEVYMGNVIQGGEGQAPTRQATLGAGLPISTPCTTVNKVCASGMKAIMMASQSLMCGHQDVMVAGGMESMSNVPYVMSRGATPYGGVKLEDLIVKDGLTDVYNKIHMGNCAENTAKKMNISRQEQDTYALSSYTRSKEAWDAGKFASEITPITISVKGKPDVVVKEDEEYKRVDFSKVPKLKTVFQKENGTITAANASTLNDGAAALVLMTAEAAQRLNVKPLARIAAFADAAVDPIDFPLAPAYAVPKVLKYAGLKKEDIAMWEVNEAFSVVVLANIKMLEIDPQKVNIHGGAVSLGHPIGMSGARIVVHMAHALKPGEFGLASICNGGGGASALLIEKL

Target: T1, PGC-1α, endogenous in mouse cells (mouse (endogenous in ovarian granulosa cells and in NIH/3T3)) (UniProt O70343)
T1 sequence: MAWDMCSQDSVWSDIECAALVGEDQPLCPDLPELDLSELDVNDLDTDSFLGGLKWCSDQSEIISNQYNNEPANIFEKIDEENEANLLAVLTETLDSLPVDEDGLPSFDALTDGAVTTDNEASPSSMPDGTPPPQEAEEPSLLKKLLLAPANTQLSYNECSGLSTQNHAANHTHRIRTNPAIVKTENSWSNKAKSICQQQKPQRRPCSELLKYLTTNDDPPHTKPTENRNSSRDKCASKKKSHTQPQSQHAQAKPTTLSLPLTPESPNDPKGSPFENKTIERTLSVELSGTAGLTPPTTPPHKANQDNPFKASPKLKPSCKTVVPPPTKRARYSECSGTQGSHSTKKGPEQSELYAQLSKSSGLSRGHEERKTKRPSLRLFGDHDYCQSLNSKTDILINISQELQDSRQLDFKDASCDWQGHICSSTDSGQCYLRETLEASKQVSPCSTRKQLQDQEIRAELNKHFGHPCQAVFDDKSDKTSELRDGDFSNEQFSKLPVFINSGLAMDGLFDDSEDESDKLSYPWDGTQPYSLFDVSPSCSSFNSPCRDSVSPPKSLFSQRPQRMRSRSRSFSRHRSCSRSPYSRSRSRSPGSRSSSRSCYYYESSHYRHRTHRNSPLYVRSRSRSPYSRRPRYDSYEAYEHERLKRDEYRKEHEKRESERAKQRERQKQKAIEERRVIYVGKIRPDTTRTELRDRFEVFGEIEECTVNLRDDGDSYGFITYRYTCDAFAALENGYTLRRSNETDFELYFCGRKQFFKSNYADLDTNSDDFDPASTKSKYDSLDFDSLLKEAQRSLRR
Assay: affinity purification with mass spectrometry; IP with PGC-1α-specific antibodies from NIH/3T3 cells, HPLC-MS/MS

Binder | binding
B1 | binds
B2 | binds
